{"source": "the supplement of paper PMC8728848", "binders": {"B1": {"name": "DC-Sign-R (Homo sapiens), Q9H2X3 (protein)", "chain": "MSDSKEPRVQQLGLLEEDPTTSGIRLFPRDFQFQQIHGHKSSTGCLGHGALVLQLLSFMLLAGVLVAILVQVSKVPSSLSQEQSEQDAIYQNLTQLKAAVGELSEKSKLQEIYQELTQLKAAVGELPEKSKLQEIYQELTRLKAAVGELPEKSKLQEIYQELTRLKAAVGELPEKSKLQEIYQELTRLKAAVGELPEKSKLQEIYQELTELKAAVGELPEKSKLQEIYQELTQLKAAVGELPDQSKQQQIYQELTDLKTAFERLCRHCPKDWTFFQGNCYFMSNSQRNWHDSVTACQEVRAQLVVIKTAEEQNFLQLQTSRSNRFSWMGLSDLNQEGTWQWVDGSPLSPSFQRYWNSGEPNNSGNEDCAEFSGSGWNDNRCDVDNYWICKKPAACFRDE"}}, "experiment_in_all_cases": "glycan array binding signal (z-score within array); higher = stronger binding", "details_in_all_cases": "glycan notation: IUPAC condensed, linker removed", "key": {"[1]": {"target": "Fuc(a1-2)Gal(b1-4)GlcNAc(b1-3)Gal(b1-4)GlcNAc(b1-2)Man(a1-3)[Fuc(a1-2)Gal(b1-4)GlcNAc(b1-3)Gal(b1-4)GlcNAc(b1-2)Man(a1-6)]Man(b1-4)GlcNAc(b1-4)GlcNAc", "outline": "(§1)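 Arrays were curated from the Consortium for Functional Glycomics database, 3228 in total, and kept only where the protein sequence was available. Binding is expressed as a within-array Z-score. This score was averaged across arrays of the same protein sequence at different concentrations or buffers and across linkers, and negative values can be read as non-binding.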"}, "[2]": {"target": "Fuc(a1-2)Gal(b1-4)GlcNAc(b1-3)Gal(b1-4)GlcNAc(b1-3)Gal(b1-4)GlcNAc", "outline": "as §1"}, "[3]": {"target": "Fuc(a1-2)Gal(b1-4)GlcNAc(b1-3)GalNAc", "outline": "as §1"}, "[4]": {"target": "Fuc(a1-2)Gal(b1-4)GlcNAc(b1-3)[Fuc(a1-2)Gal(b1-4)GlcNAc(b1-6)]GalNAc", "outline": "as §1"}, "[5]": {"target": "Fuc(a1-2)Gal(b1-4)GlcNAc(b1-3)[Fuc(a1-3)[Gal(b1-4)]GlcNAc(b1-6)]Gal(b1-4)Glc", "outline": "as §1"}, "[6]": {"target": "Fuc(a1-2)Gal(b1-4)GlcNAc(b1-6)GalNAc", "outline": "as §1"}, "[7]": {"target": "Fuc(a1-2)Gal(b1-4)GlcNAc6S", "outline": "as §1"}, "[8]": {"target": "Fuc(a1-2)Gal(b1-4)[Fuc(a1-3)]GlcNAc", "outline": "as §1"}, "[9]": {"target": "Fuc(a1-2)Gal(b1-4)[Fuc(a1-3)]GlcNAc(b1-2)Man(a1-3)[Fuc(a1-2)Gal(b1-4)[Fuc(a1-3)]GlcNAc(b1-2)Man(a1-6)]Man(b1-4)GlcNAc(b1-4)[Fuc(a1-6)]GlcNAc", "outline": "as §1"}, "[10]": {"target": "Fuc(a1-2)Gal(b1-4)[Fuc(a1-3)]GlcNAc(b1-2)[Fuc(a1-2)Gal(b1-4)[Fuc(a1-3)]GlcNAc(b1-4)]Man(a1-3)[Fuc(a1-2)Gal(b1-4)[Fuc(a1-3)]GlcNAc(b1-2)Man(a1-6)]Man(b1-4)GlcNAc(b1-4)GlcNAc", "outline": "as §1"}, "[11]": {"target": "Fuc(a1-2)Gal(b1-4)[Fuc(a1-3)]GlcNAc(b1-3)Gal(b1-4)[Fuc(a1-3)]GlcNAc", "outline": "as §1"}, "[12]": {"target": "Fuc(a1-2)Gal(b1-4)[Fuc(a1-3)]GlcNAc(b1-3)Gal(b1-4)[Fuc(a1-3)]GlcNAc(b1-3)Gal(b1-4)[Fuc(a1-3)]GlcNAc", "outline": "as §1"}, "[13]": {"target": "Fuc(a1-2)Gal(b1-4)[Fuc(a1-3)]GlcNAc(b1-3)GalNAc", "outline": "as §1"}, "[14]": {"target": "Fuc(a1-2)Gal(b1-4)[Fuc(a1-3)]GlcNAc(b1-3)[Neu5Ac(a2-6)Gal(b1-4)GlcNAc(b1-6)]Gal(b1-4)Glc", "outline": "as §1"}, "[15]": {"target": "Fuc(a1-2)Gal3S(b1-4)GlcNAc", "outline": "as §1"}, "[16]": {"target": "Fuc(a1-2)Gal6S(b1-3)GlcNAc", "outline": "as §1"}, "[17]": {"target": "Fuc(a1-2)Gal6S(b1-3)GlcNAc6S", "outline": "as §1"}, "Fuc(a1-2)Gal6S(b1-4)Glc": {"target": "Fuc(a1-2)Gal6S(b1-4)Glc", "outline": "as §1"}, "[18]": {"target": "Fuc(a1-2)Gal6S(b1-4)Glc6S", "outline": "as §1"}, "Fuc(a1-2)[Gal(a1-3)]Gal": {"target": "Fuc(a1-2)[Gal(a1-3)]Gal", "outline": "as §1"}, "[19]": {"target": "Fuc(a1-2)[Gal(a1-3)]Gal(b1-3)GalNAc", "outline": "as §1"}, "[20]": {"target": "Fuc(a1-2)[Gal(a1-3)]Gal(b1-3)GalNAc(b1-3)Gal(a1-4)Gal(b1-4)Glc", "outline": "as §1"}, "[21]": {"target": "Fuc(a1-2)[Gal(a1-3)]Gal(b1-3)GlcNAc", "outline": "as §1"}, "[22]": {"target": "Fuc(a1-2)[Gal(a1-3)]Gal(b1-3)GlcNAc(b1-2)Man(a1-3)[Fuc(a1-2)[Gal(a1-3)]Gal(b1-3)GlcNAc(b1-2)Man(a1-6)]Man(b1-4)GlcNAc(b1-4)GlcNAc", "outline": "as §1"}, "[23]": {"target": "Fuc(a1-2)[Gal(a1-3)]Gal(b1-3)GlcNAc(b1-2)Man(a1-3)[Fuc(a1-2)[Gal(a1-3)]Gal(b1-3)GlcNAc(b1-2)Man(a1-6)]Man(b1-4)GlcNAc(b1-4)[Fuc(a1-6)]GlcNAc", "outline": "as §1"}, "[24]": {"target": "Fuc(a1-2)[Gal(a1-3)]Gal(b1-3)GlcNAc(b1-3)GalNAc", "outline": "as §1"}, "[25]": {"target": "Fuc(a1-2)[Gal(a1-3)]Gal(b1-3)GlcNAc(b1-6)GalNAc", "outline": "as §1"}, "[26]": {"target": "Fuc(a1-2)[Gal(a1-3)]Gal(b1-4)Glc", "outline": "as §1"}, "[27]": {"target": "Fuc(a1-2)[Gal(a1-3)]Gal(b1-4)GlcNAc", "outline": "as §1"}, "[28]": {"target": "Fuc(a1-2)[Gal(a1-3)]Gal(b1-4)GlcNAc(b1-2)Man", "outline": "as §1"}}, "note": "The other results are listed elsewhere or left out."}
{"binder": "B1", "values": [{"measurement": "glycan array binding signal (z-score)", "setting": "[1]", "result": 1.92}, {"measurement": "glycan array binding signal (z-score)", "setting": "[2]", "result": -0.17}, {"measurement": "glycan array binding signal (z-score)", "setting": "[3]", "result": -0.011}, {"measurement": "glycan array binding signal (z-score)", "setting": "[4]", "result": -0.056}, {"measurement": "glycan array binding signal (z-score)", "setting": "[5]", "result": -0.66}, {"measurement": "glycan array binding signal (z-score)", "setting": "[6]", "result": -0.508}, {"measurement": "glycan array binding signal (z-score)", "setting": "[7]", "result": 0.041}, {"measurement": "glycan array binding signal (z-score)", "setting": "[8]", "result": -0.489}, {"measurement": "glycan array binding signal (z-score)", "setting": "[9]", "result": -0.302}, {"measurement": "glycan array binding signal (z-score)", "setting": "[10]", "result": -0.733}, {"measurement": "glycan array binding signal (z-score)", "setting": "[11]", "result": -0.565}, {"measurement": "glycan array binding signal (z-score)", "setting": "[12]", "result": -0.308}, {"measurement": "glycan array binding signal (z-score)", "setting": "[13]", "result": 1.7}, {"measurement": "glycan array binding signal (z-score)", "setting": "[14]", "result": -0.08}, {"measurement": "glycan array binding signal (z-score)", "setting": "[15]", "result": 0.306}, {"measurement": "glycan array binding signal (z-score)", "setting": "[16]", "result": 0.1}, {"measurement": "glycan array binding signal (z-score)", "setting": "[17]", "result": -0.452}, {"measurement": "glycan array binding signal (z-score)", "setting": "Fuc(a1-2)Gal6S(b1-4)Glc", "result": -0.528}, {"measurement": "glycan array binding signal (z-score)", "setting": "[18]", "result": 0.08}, {"measurement": "glycan array binding signal (z-score)", "setting": "Fuc(a1-2)[Gal(a1-3)]Gal", "result": -0.42}, {"measurement": "glycan array binding signal (z-score)", "setting": "[19]", "result": -0.028}, {"measurement": "glycan array binding signal (z-score)", "setting": "[20]", "result": 0.342}, {"measurement": "glycan array binding signal (z-score)", "setting": "[21]", "result": -0.104}, {"measurement": "glycan array binding signal (z-score)", "setting": "[22]", "result": -0.88}, {"measurement": "glycan array binding signal (z-score)", "setting": "[23]", "result": -0.789}, {"measurement": "glycan array binding signal (z-score)", "setting": "[24]", "result": -0.033}, {"measurement": "glycan array binding signal (z-score)", "setting": "[25]", "result": -0.515}, {"measurement": "glycan array binding signal (z-score)", "setting": "[26]", "result": -0.689}, {"measurement": "glycan array binding signal (z-score)", "setting": "[27]", "result": 0.443}, {"measurement": "glycan array binding signal (z-score)", "setting": "[28]", "result": -0.331}]}
